Experimental data as given in article PMC7845632.
Results are given in words; binding and its absence hold for the method and conditions named. Binding seen in cells or lysates may run through a third protein. Here binding means that the protein was enriched with, or labelled near, the bait; the list need not be complete.

Columns and labels:
[1] = target: TmeA-BirA (C. trachomatis L2); experiment: proximity labelling
[2] = target: TmeA-BirA (C. trachomatis L2); experiment: proximity labelling; BirA (BioID) fusions nucleofected into HeLa, 24 h with biotin, biotinylated proteins isolated with Avidin beads, eluates probed by immunoblot with protein-specific antibodies; multiple experiments

Binder	binding [1]	binding [2]
podocalyxin-like protein (PODXL) (protein, UniProt O00592 23-558) SPSPSPSPSQNATQTTTDSSNKTAPTPASSVTIMATDTAQQSTVPTSKANEILASVKATTLGVSSDSPGTTTLAQQVSGPVNTTVARGGGSGNPTTTIESPKSTKSADTTTVATSTATAKPNTTSSQNGAEDTTNSGGKSSHSVTTDLTSTKAEHLTTPHPTSPLSPRQPTSTHPVATPTSSGHDHLMKISSSSSTVAIPGYTFTSPGMTTTLLETVFHHVSQAGLELLTSGDLPTLASQSAGITASSVISQRTQQTSSQMPASSTAPSSQETVQPTSPATALRTPTLPETMSSSPTAASTTHRYPKTPSPTVAHESNWAKCEDLETQTQSEKQLVLNLTGNTLCAGGASDEKLISLICRAVKATFNPAQDKCGIRLASVPGSQTVVVKEITIHTKLPAKDVYERLKDKWDELKEAGVSDMKLGDQGPPEEAEDRFSMPLIITIVCMASFLLLVAALYGCCHQRLSQRKDQQRLTEELQTVENGYHDNPTLEVMETSSEMQEKKVVSLNGELGDSWIVPLDNLTKDDLDEEEDTHL	binds	
SLC1A5 (ASCT2) (protein, UniProt Q15758 1-541) MVADPPRDSKGLAAAEPTANGGLALASIEDQGAAAGGYCGSRDQVRRCLRANLLVLLTVVAVVAGVALGLGVSGAGGALALGPERLSAFVFPGELLLRLLRMIILPLVVCSLIGGAASLDPGALGRLGAWALLFFLVTTLLASALGVGLALALQPGAASAAINASVGAAGSAENAPSKEVLDSFLDLARNIFPSNLVSAAFRSYSTTYEERNITGTRVKVPVGQEVEGMNILGLVVFAIVFGVALRKLGPEGELLIRFFNSFNEATMVLVSWIMWYAPVGIMFLVAGKIVEMEDVGLLFARLGKYILCCLLGHAIHGLLVLPLIYFLFTRKNPYRFLWGIVTPLATAFGTSSSSATLPLMMKCVEENNGVAKHISRFILPIGATVNMDGAALFQCVAAVFIAQLSQQSLDFVKIITILVTATASSVGAAGIPAGGVLTLAIILEAVNLPVDHISLILAVDWLVDRSCTVLNVEGDALGAGLLQNYVDRTESRSTEPELIQVKSELPLDPLPVPTEEGNPLLKHYRGPAGDATVASEKESVM	binds	binds
formin BP1 (FNBP1) (protein, UniProt Q96RU3 1-617) MSWGTELWDQFDNLEKHTQWGIDILEKYIKFVKERTEIELSYAKQLRNLSKKYQPKKNSKEEEEYKYTSCKAFISNLNEMNDYAGQHEVISENMASQIIVDLARYVQELKQERKSNFHDGRKAQQHIETCWKQLESSKRRFERDCKEADRAQQYFEKMDADINVTKADVEKARQQAQIRHQMAEDSKADYSSILQKFNHEQHEYYHTHIPNIFQKIQEMEERRIVRMGESMKTYAEVDRQVIPIIGKCLDGIVKAAESIDQKNDSQLVIEAYKSGFEPPGDIEFEDYTQPMKRTVSDNSLSNSRGEGKPDLKFGGKSKGKLWPFIKKNKLMSLLTSPHQPPPPPPASASPSAVPNGPQSPKQQKEPLSHRFNEFMTSKPKIHCFRSLKRGLSLKLGATPEDFSNLPPEQRRKKLQQKVDELNKEIQKEMDQRDAITKMKDVYLKNPQMGDPASLDHKLAEVSQNIEKLRVETQKFEAWLAEVEGRLPARSEQARRQSGLYDSQNPPTVNNCAQDRESPDGSYTEEQSQESEMKVLATDFDDEFDDEEPLPAIGTCKALYTFEGQNEGTISVVEGETLYVIEEDKGDGWTRIRRNEDEEGYVPTSYVEVCLDKNAKDS	binds	
